Results are given in words; binding and its absence hold for the method and conditions named. Binding seen in cells or lysates may run through a third protein. For part of these data: Binding can be weak; no strength is given. Sequences can lack the tags named with a protein.
What was measured:
Assay in all cases: co-IP; 25 mg crude lysate of yeast strains with a C-terminally TAP-tagged SAGA component and Flag-Spt7, purified on IgG agarose; bound protein separated by 5% SDS-PAGE, Flag-Spt7 forms detected with anti-Flag antibody
[1] = biological target: T1, C-terminally TAP-tagged Spt8 (S. cerevisiae) (UniProt P38915)
T1 sequence: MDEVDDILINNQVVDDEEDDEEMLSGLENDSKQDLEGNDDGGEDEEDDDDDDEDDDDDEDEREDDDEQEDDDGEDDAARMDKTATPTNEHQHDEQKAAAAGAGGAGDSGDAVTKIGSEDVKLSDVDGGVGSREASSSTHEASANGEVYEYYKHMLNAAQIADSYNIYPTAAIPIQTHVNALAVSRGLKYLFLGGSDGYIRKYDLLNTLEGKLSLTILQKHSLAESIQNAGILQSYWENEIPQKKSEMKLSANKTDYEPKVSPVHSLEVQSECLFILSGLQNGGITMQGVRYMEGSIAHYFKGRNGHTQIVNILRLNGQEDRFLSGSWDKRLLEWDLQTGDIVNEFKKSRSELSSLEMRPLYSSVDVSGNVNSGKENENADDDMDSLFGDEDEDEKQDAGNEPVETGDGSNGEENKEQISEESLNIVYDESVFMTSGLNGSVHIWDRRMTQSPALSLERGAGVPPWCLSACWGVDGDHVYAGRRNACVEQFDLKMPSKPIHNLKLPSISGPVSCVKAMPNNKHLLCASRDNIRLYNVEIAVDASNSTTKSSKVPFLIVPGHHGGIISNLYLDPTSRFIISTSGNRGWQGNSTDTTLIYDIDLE

[2] = biological target: T2, C-terminally TAP-tagged Ada2 (S. cerevisiae) (UniProt Q02336)
T2 sequence: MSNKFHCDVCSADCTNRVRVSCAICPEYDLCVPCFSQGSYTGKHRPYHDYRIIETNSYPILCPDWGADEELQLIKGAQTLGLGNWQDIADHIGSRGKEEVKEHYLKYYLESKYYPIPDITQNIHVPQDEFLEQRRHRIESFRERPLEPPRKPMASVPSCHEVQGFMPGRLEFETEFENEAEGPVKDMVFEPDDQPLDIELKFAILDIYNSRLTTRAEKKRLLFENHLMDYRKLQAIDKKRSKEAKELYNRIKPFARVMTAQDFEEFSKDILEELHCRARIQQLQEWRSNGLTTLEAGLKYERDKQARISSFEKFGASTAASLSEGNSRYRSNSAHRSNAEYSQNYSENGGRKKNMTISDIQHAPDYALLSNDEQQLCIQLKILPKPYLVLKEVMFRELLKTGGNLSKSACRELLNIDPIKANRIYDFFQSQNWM

[3] = biological target: T3, C-terminally TAP-tagged Spt3 (S. cerevisiae) (UniProt P06844)
T3 sequence: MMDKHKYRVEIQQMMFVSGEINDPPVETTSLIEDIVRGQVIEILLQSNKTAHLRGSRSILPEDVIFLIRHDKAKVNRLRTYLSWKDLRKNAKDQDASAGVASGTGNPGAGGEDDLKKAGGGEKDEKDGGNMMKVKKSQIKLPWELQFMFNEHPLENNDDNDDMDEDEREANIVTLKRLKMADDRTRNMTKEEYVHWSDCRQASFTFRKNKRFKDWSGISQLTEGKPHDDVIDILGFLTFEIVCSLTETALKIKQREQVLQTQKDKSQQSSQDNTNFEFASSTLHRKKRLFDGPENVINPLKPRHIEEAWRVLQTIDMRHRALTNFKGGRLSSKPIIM

[4] = biological target: T4, C-terminally TAP-tagged Taf5 (S. cerevisiae) (UniProt P38129)
T4 sequence: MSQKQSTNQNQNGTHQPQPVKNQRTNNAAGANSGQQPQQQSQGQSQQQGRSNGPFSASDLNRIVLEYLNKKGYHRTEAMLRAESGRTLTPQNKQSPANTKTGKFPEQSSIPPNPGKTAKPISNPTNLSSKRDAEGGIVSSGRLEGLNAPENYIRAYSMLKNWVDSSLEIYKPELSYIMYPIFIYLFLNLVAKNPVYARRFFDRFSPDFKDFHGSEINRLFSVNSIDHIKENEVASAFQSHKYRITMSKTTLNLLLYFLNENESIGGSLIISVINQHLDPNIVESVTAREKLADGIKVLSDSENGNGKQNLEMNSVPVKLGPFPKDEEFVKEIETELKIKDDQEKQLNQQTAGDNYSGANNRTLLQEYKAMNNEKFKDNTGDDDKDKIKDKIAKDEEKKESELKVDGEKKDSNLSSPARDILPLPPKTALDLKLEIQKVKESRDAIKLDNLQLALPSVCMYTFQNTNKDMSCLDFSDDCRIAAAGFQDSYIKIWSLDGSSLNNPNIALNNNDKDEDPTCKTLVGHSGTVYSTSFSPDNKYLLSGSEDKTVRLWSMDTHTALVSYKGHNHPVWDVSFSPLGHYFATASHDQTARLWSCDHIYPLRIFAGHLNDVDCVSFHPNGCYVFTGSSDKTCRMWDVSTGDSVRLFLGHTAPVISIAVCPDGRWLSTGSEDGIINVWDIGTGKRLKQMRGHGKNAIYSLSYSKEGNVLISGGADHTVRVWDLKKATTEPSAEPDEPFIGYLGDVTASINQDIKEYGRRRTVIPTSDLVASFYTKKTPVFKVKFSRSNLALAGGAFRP

[5] = biological target: T5, C-terminally TAP-tagged Ubp8 (S. cerevisiae) (UniProt P50102)
T5 sequence: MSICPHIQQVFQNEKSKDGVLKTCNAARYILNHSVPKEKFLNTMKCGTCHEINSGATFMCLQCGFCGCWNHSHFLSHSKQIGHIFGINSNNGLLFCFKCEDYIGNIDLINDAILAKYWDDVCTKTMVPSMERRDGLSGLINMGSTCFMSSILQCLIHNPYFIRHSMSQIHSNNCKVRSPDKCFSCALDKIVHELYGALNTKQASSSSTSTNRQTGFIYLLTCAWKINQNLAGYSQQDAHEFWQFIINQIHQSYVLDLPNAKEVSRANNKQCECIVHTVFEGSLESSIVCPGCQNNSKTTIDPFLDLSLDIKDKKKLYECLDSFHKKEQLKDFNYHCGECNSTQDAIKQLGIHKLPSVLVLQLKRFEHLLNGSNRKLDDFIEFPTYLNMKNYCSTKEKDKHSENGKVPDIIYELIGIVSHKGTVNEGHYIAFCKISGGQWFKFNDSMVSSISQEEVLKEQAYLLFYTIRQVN

Row | binding [1] | binding [2] | binding [3] | binding [4] | binding [5] | Substance
1 | no binding |  |  |  |  | Flag-Spt7, third C-terminally processed form (Spt7Form3) (S. cerevisiae) (domain or fragment)
2 | no binding | binds | binds | binds | binds | Flag-Spt7, C-terminally truncated SLIK form (Spt7SLIK) (S. cerevisiae) (domain or fragment)

Source: article PMC1976419
